Laboratory results from patent US20240400677A1.

B1: Antibody 83 (antibody, V domains shown)
VH: QVQLVQSGAEVKKPGASVKVSCKASGYSFSDYYMHWVRQAPGQGLEWMGWMSPNSGNTGYAQKFQGRVTMTRDTSTSTVYMELSSLRSEDTAVYYCARQREEYGHYYYGMDVWGQGTMVTVSS
VL: EIVMTQSPATLSVSPGERATLSCRASQSLGSTYLAWYQQKPGQAPRLLIYGASTRATGIPARFSGSGSGTEFTLTISSLQSEDFAVYYCQQYYSSPPTFGQGTKVEIK
B2: Antibody 84 (antibody, V domains shown)
VH: QVQLVQSGAEVKKPGASVKVSCKASGYTFTSYYMHWVRQAPGQGLEWMGWINPNSGNAGFAQKFQGRVTMTRDTSTSTVYMELSSLRSEDTAVYYCARGPVYSYGPFDYWGQGTLVTVSS
VL: DIQMTQSPSSLSASVGDRVTITCRASQGISTYLAWYQQKPGKAPKLLIYAASTLQSGVPSRFSGSGSGTDFTLTISSLQPEDFATYYCQQSHSAPITFGQGTKVEIK
B3: Antibody 89 (antibody, V domains shown)
VH: QVQLVQSGAEVKKPGASVKVSCKASGGTFSSYAISWVRQAPGQGLEWMGIINPSSSSTGYAQKFQGRVTMTRDTSTSTVYMELSSLRSEDTAVYYCARAGYYDSSGYYYSPYYGMDVWGQGTTVTVSS
VL: B1 VL with L29I, G30S, S31G, T32S, Y93G, S95F, P97F, Q101P, E106D
B4: Antibody 90 (antibody, V domains shown)
VH: QVQLVQSGAEVKKPGASVKVSCKASGYTFTSYYMHWVRQAPGQGLEWMGWMNPNSDNTGYAQKFQGRVTMTRDTSTSTVYMELSSLRSEDTAVYYCARVGVGYGYYYYGMDVWGQGTTVTVSS
VL: B2 VL with S26G, G28S, S30G, T31D, A34N, T53S, H92Y, A94T, I96W
B5: Antibody 95 (antibody, V domains shown)
VH: QVQLVQSGAEVKKPGASVKVSCKASGYTFTSYYMHWVRQAPGQGLEWMGWMNPNSGNTGYAQKFQGRVTMTRDTSTSTVYMELSSLRSEDTAVYYCARDQMYSSYGMDVWGQGTTVTVSS
VL: DIQMTQSPSSLSASVGDRVTITCRASESITNWLAWYQQKPGKAPKLLIYKASSLESGVPSRFSGSGSGTDFTLTISSLQPEDFATYYCQQSYGTPYTFGQGTKVEIK
B6: Antibody 96 (antibody, V domains shown)
VH: QVQLVQSGAEVKKPGASVKVSCKASGYTFTRYDINWVRQAPGQGLEWMGWMNPNSGNTGYAQKLQGRVTMTRDTSTSTVYMELSSLRSEDTAVYYCARERVGYCSSTSCLHPLDYWGQGTLVTVSS
VL: DIQMTQSPSSLSASVGDRVTITCRASQGIRNDLGWYQQKPGKAPKLLIYSASNLQSGVPSRFSGSGSGTDFTLTISSLQPEDFATYYCQQSYDVPLTFGGGTKVEIK
B7: Antibody 97 (antibody, V domains shown)
VH: QVQLVQSGAEVKKPGASVKVSCKASGHTFNNNYIHWVRQAPGQGLEWMGIINPSGGSTSYAQKFQGRVTMTRDTSTSTVYMELSSLRSEDTAVYYCARQIQDYGYYYYGMDVWGQGTTVTVSS
VL: EIVMTQSPATLSVSPGERATLSCRASQSVSKYLAWYQQKPGQAPRLLIYAISARAAGIPARFSGSGSGTEFTLTISSLQSEDFAVYYCQQYYSSPPTFGQGTKVEIK
B8: Antibody 8 (antibody, V domains shown)
VH: QVQLVQSGAEVKKPGASVKVSCKASGYTFTGYHIHWVRQAPGQGLEWMGWINPNSGGTNYAQKFQGRVTMTRDTSINTAYMELNRLRSDDTAVFYCARERVGYCSRPSCLDDLNIWGQGTMVTVSS
VL: DIQMTQSPSTLSASVGDRVTITCRASQSISSWLAWYQQKPGKAPKLLIYKASSLETGVPSRFSGSGSGTEFTLTISSLQPDDFATYYCQQYDSYYTFGQGTKLEIK
B9: Antibody 54 (antibody, V domains shown)
VH: B1 VH
VL: B1 VL
B10: Antibody 55 (antibody, V domains shown)
VH: EVQLLESGGGLVQPGGSLRLSCAASGFTFSNSDMNWVRQAPGKGLEWVSYISSSGNTIYYADSVKGRFTISRDNSKNTLYLQMNSLRAEDTAVYYCARSNWNYPLDYYYMDVWGKGTTVTVSS
VL: DIVMTQSPLSLPVTPGEPASISCRSSQSLLHSNGYNYLDWYLQKPGQSPQLLIYAASSLQSGVPDRFSGSGSGTDFTLKISRVEAEDVGVYYCMQGTHWPPTFGQGTKVEIK
B11: Antibody 56 (antibody, V domains shown)
VH: QVQLVQSGAEVKKPGASVKVSCKASGYTFTSYYMHWVRQAPGQGLEWMGWVDPNNGDTGYAQKFQGRVTMTRDTSTSTVYMELSSLRSEDTAVYYCARDNWGSLDVWGKGTTVTVSS
VL: B10 VL with S58T, T97L, H98Q, W99T, P100L, P101Y, T102S, V109L
B12: Antibody 57 (antibody, V domains shown)
VH: B2 VH
VL: B2 VL
B13: Antibody 58 (antibody, V domains shown)
VH: QVQLVQSGAEVKKPGASVKVSCKASGYTFTAYYMHWVRQAPGQGLEWMGIINPSGGSTSYAQKFQGRVTMTRDTSTSTVYMELSSLRSEDTAVYYCARDSGWYAPGYYYGMDVWGQGTTVTVSS
VL: B5 VL with T30S, N31H, K50G, S53T, E55Q, G93T, T94P, Y96L, Q100G
B14: Antibody 60 (antibody, V domains shown)
VH: EVQLLESGGGLVQPGGSLRLSCAASGFTLGSYWMHWVRQAPGKGLEWVSLISWDGGSTYYADSVKGRFTISRDNSKNTLYLQMNSLRAEDTAVYYCAKGPWVGYSGYDLNYYYYGMDVWGQGTTVTVSS
VL: DIQMTQSPSSLSASVGDRVTITCRASQDIRRALAWYQQKPGKAPKLLIYAASSLQSGVPSRFSGSGSGTDFTLTISSLQPEDFATYYCLQHNSYPPTFGQGTKLEIK
B15: Antibody 62 (antibody, V domains shown)
VH: QVQLVQSGAEVKKPGASVKVSCKASGGTFSNYDINWVRQAPGQGLEWMGWISAYNGNTNYAQKLQGRVTMTRDTSTSTVYMELSSLRSEDTAVYYCAAEAYGDYSLDPWGQGTLVTVSS
VL: B2 VL with R24Q, T31S, A34N, T53S, S56N, H92Y, A94T, K103R, V104L
B16: Antibody 63 (antibody, V domains shown)
VH: QVQLVQSGAEVKKPGASVKVSCKASGYTFTGYYMHWVRQAPGQGLEWMGIINPSGGSTNYAQKFQGRVTMTRDTSTSTVYMELSSLRSEDTAVYYCARGPIGYGMDVWGQGTLVTVSS
VL: B14 VL with D28G, R30G, R31N, A32D, A34G, S53N, Q55E, S56T, N92H, P96F
B17: Antibody 64 (antibody, V domains shown)
VH: QVQLVQSGAEVKKPGASVKVSCKASGYTFTSYYMHWVRQAPGQGLEWMGRINPNSGGTKYAQKFQGRVTMTRDTSTSTVYMELSSLRSEDTAVYYCARLGSAYFDLWGRGTLVTVSS
VL: DIQMTQSPSSLSASVGDRVTITCRASQSVDTWLAWYQQKPGKAPKLLIYEASTLESGVPSRFSGSGSGTDFTLTISSLQPEDFATYYCQQANSFPITFGQGTRLEIK
B18: Antibody 66 (antibody, V domains shown)
VH: B3 VH
VL: B1 VL with L29I, G30S, S31G, T32S, Y93G, S95F, P97F, Q101P, E106D
B19: Antibody 67 (antibody, V domains shown)
VH: QVQLVQSGAEVKKPGASVKVSCKASGYTFTNFDINWVRQAPGQGLEWMGWISAYNGHTNYAQNLQGRVTMTRDTSTSTVYMELSSLRSEDTAVYYCAQEAAAGYFDYWGQGTLVTVSS
VL: B5 VL with E27Q, S28D, T30R, W32D, K50D, S53N, S56T, V104L
B20: Antibody 52 (scFv, V domains shown)
VH: QVQLVQSGAEVKKPGASVKVSCKASGYTFTSYDINWVRQAPGQGLEWMGWISGYNGNTNYAQKFQGRVTMTRDTSTSTVYMELSSLRSEDTAVYYCARSFDWLLLLDYWGQGTLVTVSS
VL: B17 VL with V29I, D30S, T31S, E50D, S52T, A91Y, N92D, F94Y, I96W, R103K
B21: Antibody 53 (scFv, V domains shown)
VH: B7 VH
VL: B7 VL

Experiments:
[1] = target: Human SIRPβ1 (plate-coated extracellular domain) (Homo sapiens); experiment: ELISA, coated SIRP ECD (2 µg/mL), anti-human IgG, luminescence
[2] = target: cynomolgus monkey SIRPβ1-His monomer protein (cynomolgus monkey); experiment: BLI

| Binder | binding [1] | binding [2] |
| --- | --- | --- |
| B1 | no binding (tested: about 60 µg/mL) | – |
| B2 | no binding (tested: about 60 µg/mL) | – |
| B3 | no binding (tested: about 60 µg/mL) | – |
| B4 | no binding (tested: about 60 µg/mL) | – |
| B5 | no binding (tested: about 60 µg/mL) | – |
| B6 | no binding (tested: about 60 µg/mL) | – |
| B7 | no binding (tested: about 60 µg/mL) | – |
| B8 | no binding (tested: about 40 µg/mL) | – |
| B9 | no binding (tested: about 40 µg/mL) | – |
| B10 | no binding (tested: about 40 µg/mL) | – |
| B11 | no binding (tested: about 40 µg/mL) | – |
| B12 | no binding (tested: about 40 µg/mL) | – |
| B13 | no binding (tested: about 40 µg/mL) | – |
| B14 | no binding (tested: about 40 µg/mL) | – |
| B15 | no binding (tested: about 40 µg/mL) | – |
| B16 | no binding (tested: about 40 µg/mL) | – |
| B17 | no binding (tested: about 40 µg/mL) | – |
| B18 | no binding (tested: about 40 µg/mL) | – |
| B19 | no binding (tested: about 40 µg/mL) | – |
| B20 | – | no binding (tested: <0.02 nm at 115 s) |
| B21 | – | no binding (tested: <0.02 nm at 115 s) |

Positions count from the first letter of the chain named. Results are given in words; binding and its absence hold for the method and conditions named.
